Reference: paper PMC3182252
Results are given in words; binding and its absence hold for the method and conditions named. For some assays here: Binding seen in cells or lysates may run through a third protein. Some binding calls cover weakened binding; strength is not graded here.

Chains of the proteins cited; added tags and fusions are not shown. Lines headed by an entry give the natural chain unless they say otherwise; changes in a name come on top. Residues count along the entry.
UniProt P35968: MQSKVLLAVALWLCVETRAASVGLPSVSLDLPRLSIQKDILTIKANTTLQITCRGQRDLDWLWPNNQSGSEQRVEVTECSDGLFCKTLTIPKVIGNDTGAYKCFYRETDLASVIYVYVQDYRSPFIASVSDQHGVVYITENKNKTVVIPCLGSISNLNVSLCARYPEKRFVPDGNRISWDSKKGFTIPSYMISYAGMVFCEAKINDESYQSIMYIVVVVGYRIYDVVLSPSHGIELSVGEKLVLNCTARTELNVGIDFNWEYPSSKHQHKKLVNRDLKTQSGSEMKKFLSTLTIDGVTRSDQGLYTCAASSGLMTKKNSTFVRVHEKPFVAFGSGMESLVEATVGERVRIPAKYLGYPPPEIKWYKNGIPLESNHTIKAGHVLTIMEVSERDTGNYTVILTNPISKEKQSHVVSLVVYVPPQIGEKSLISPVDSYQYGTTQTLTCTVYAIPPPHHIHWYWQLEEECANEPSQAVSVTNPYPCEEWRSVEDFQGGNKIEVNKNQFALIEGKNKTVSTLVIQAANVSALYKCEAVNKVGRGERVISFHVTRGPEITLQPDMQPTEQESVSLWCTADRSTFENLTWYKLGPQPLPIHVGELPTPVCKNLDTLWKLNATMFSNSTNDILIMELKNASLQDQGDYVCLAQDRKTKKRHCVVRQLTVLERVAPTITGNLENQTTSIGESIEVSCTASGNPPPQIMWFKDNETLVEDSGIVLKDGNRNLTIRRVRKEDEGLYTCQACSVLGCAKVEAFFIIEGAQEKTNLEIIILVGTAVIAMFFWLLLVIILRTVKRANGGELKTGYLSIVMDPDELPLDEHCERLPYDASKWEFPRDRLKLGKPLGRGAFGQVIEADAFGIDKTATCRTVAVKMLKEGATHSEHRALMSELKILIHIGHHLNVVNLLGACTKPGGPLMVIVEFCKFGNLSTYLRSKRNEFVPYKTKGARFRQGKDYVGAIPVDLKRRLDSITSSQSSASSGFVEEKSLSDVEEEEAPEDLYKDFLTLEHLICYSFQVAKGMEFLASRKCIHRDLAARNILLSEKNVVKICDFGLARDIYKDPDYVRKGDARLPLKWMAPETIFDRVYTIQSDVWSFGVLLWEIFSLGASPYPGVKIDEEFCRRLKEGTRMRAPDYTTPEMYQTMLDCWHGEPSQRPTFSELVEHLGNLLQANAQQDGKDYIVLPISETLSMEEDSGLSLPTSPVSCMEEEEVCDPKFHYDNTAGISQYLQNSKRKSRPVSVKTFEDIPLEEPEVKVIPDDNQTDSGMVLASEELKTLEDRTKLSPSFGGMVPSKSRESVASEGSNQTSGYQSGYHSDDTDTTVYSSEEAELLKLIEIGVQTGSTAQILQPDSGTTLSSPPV
Vascular Endothelial Growth Factor Receptor-2 (VEGFR2), nuclear (human (endogenous in HUVEC)): residues 20-1356 of P35968
VEGFR2 (789-1356)-GST: residues 789-1356 of P35968
UniProt P08047: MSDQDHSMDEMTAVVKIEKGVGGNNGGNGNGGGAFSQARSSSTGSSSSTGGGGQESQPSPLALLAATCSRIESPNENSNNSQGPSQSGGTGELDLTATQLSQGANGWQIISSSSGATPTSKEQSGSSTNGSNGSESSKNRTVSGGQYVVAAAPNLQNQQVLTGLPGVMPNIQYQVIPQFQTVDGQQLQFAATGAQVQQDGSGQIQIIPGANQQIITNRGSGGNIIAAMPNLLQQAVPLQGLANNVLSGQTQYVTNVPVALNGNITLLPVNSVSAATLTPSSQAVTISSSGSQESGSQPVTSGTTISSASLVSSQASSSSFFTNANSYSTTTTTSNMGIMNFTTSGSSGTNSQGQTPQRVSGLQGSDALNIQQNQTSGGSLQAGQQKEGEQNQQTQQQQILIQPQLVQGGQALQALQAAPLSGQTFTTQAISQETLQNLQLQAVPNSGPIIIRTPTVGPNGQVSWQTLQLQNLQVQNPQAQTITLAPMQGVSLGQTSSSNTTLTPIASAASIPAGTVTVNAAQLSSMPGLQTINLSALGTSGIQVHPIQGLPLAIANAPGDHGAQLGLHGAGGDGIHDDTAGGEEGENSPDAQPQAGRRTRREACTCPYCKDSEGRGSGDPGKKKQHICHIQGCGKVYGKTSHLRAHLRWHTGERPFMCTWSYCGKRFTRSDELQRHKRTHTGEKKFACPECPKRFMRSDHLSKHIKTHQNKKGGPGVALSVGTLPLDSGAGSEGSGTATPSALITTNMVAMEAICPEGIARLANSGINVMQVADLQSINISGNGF

Key:
[1] = molecular target: VEGFR2 (789-1356)-GST (human) (UniProt P35968); experiment: pull-down; 3 µg Sp1-HA (pre-cleared on glutathione-sepharose 4B) incubated with 3 µg VEGFR2 (789-1356)-GST overnight at 4°C; 50 mM Tris-HCl pH 7.5, 150 mM NaCl, 10% glycerol, 1% NP-40, 1 mM orthovanadate; recovered on glutathione-sepharose beads, eight washes; immunoblot with GST and Sp1 antibodies; both purified
[2] = molecular target: Vascular Endothelial Growth Factor Receptor-2 (VEGFR2), nuclear (human (endogenous in HUVEC)) (UniProt P35968); experiment: co-IP; EC nuclear extracts precipitated with anti-VEGFR2 or anti-Sp1 antibody and protein G-Sepharose, overnight at 4°C; washed once in lysis buffer with 500 mM NaCl and twice with 150 mM NaCl; immunoblot for VEGFR2 and Sp1

binding [1] | binding [2] | Substance
binds | – | Sp1 protein fused to a HA tag (Sp1-HA) (from UniProt P08047 1-785)
– | binds | Sp1 transcription factor (from UniProt P08047 1-785)
